Source: article PMC6586287, “Blocking transmembrane219 protein signaling inhibits autophagy and restores normal cell death” (PLoS ONE, 2019)
These are yes or no findings as the source states them, for the method shown. Binding seen in cells or lysates may run through a third protein. For some assays here: A result given as binding can be weak or reduced; the word gives no strength.

How the values were obtained:
[1] = target: Transmembrane 219 (TM219) protein, endogenous (human (endogenous in THP1 and MCF7)) (UniProt Q86XT9); test: co-IP; MCF7 cells not treated with IGFBP3; anti-TM219 antibody crosslinked to beads in a column; blot with anti-CaMKII
[2] = target: Transmembrane 219 (TM219) protein, endogenous (human (endogenous in THP1 and MCF7)) (UniProt Q86XT9); test: co-IP; MCF7 cells treated with 1 μM IGFBP3; anti-TM219 antibody crosslinked to beads in a column; blots with anti-CaMKII and anti-calmodulin; control normal mouse antibodies

With “Calcium/Calmodulin dependent protein kinase II (human (endogenous in MCF7)) (enzyme)” the binding [1] was “no binding (only cells not treated with IGFBP3)” and the binding [2] was “binds”.
